According to patent US9840494B2, “Quinazoline derivative” (Tianjin Hemay Oncology Pharmaceutical Co., Ltd., priority 2013, dated 2017):
Where two headings read alike, the source gives them in different places. Some of these results come from one statement about several compounds together. At least one compound was matched to its structure with a doubt left.

Test system: salmonella typhimurium TA97, TA98, TA100, TA1535, and TA102
Details: positive control

Row | SMILES | number of revertant mutation colonies relative to the vehicle control group (metabolic activation conditions) | number of revertant mutation colonies relative to the vehicle control group (non-metabolic activation conditions)
1 | Nc1ccc2cc3ccccc3cc2c1 [2-aminoanthracene, reference compound] | more than 2 fold | 
2 | CN(C)c1ccc(N=NS(=O)(=O)[O-])cc1.[Na+] [Dexon, reference compound] |  | more than 2 fold
